Measurements reported in article PMC3799434, “RNA polymerase III-specific general transcription factor IIIC contains a heterodimer resembling TFIIF Rap30/Rap74” (Nucleic Acids Research, 2013).
Changes are numbered by the printed parent chain. For some of these results: A weaker result is weaker than the reference pair of the same experiment. Where a protein sequence is shown, tags need not be part of it. For some of these results: The exact form of at least one protein or probe is not confirmed. For some of these results: At least one verdict was read from the data and is not stated in words by the source.

Assays:
[1] = target: T1, Sfc1-DBD R237A/R238A (Schizosaccharomyces pombe) (UniProt O14229); assay: EMSA; conditions: Buffer D: 20 mM Tris-HCl pH 7.5, 200 mM KCl, 2 mM MgCl2, 10 mM DTT, 25 C (EMSA and nitrocellulose filter binding); recombinant protein; residues 186-396; protein details: N-terminal His-tag, TEV-cleaved; label: 32P
T1 sequence (looked up): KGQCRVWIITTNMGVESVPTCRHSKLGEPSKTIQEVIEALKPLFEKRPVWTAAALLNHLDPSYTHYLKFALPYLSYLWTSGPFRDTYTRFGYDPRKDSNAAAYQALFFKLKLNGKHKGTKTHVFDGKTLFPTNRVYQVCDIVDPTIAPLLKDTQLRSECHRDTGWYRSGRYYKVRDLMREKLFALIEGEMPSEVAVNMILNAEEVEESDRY

[2] = target: T2, Sfc1-DBD R269A/K294A (Schizosaccharomyces pombe) (UniProt O14229); assay: EMSA; conditions: Buffer D: 20 mM Tris-HCl pH 7.5, 200 mM KCl, 2 mM MgCl2, 10 mM DTT, 25 C (EMSA and nitrocellulose filter binding); recombinant protein; residues 186-396; protein details: N-terminal His-tag, TEV-cleaved; label: 32P
T2 sequence (looked up): T1 sequence (looked up) with A52R, A53R, R84A, K109A

[3] = target: T3, Sfc1 111-396 (Schizosaccharomyces pombe) (UniProt O14229); assay: filter binding; conditions: Buffer D: 20 mM Tris-HCl pH 7.5, 200 mM KCl, 2 mM MgCl2, 10 mM DTT, 25 C (EMSA and nitrocellulose filter binding); recombinant protein; residues 111-396; protein details: N-terminal His-tag, TEV-cleaved; label: 32P
T3 sequence (looked up): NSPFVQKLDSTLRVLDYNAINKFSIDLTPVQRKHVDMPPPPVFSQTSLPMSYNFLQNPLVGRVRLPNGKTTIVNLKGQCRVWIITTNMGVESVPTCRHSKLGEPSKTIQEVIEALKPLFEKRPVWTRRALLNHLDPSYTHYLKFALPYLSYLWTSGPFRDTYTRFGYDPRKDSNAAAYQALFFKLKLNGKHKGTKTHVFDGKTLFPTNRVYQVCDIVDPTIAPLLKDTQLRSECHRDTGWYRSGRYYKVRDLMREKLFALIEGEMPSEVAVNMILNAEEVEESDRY

[4] = target: T1, Sfc1-DBD R237A/R238A (Schizosaccharomyces pombe); assay: filter binding; conditions: Buffer D: 20 mM Tris-HCl pH 7.5, 200 mM KCl, 2 mM MgCl2, 10 mM DTT, 25 C (EMSA and nitrocellulose filter binding); recombinant protein; residues 186-396; protein details: N-terminal His-tag, TEV-cleaved; label: 32P

CGAAGTGGCCGAGTGGTCTATGGCG (double strand) [A-box dsDNA (25 bp)]
binding result [1]: binds more weakly | binding result [2]: binds more weakly | binding result [3]: binds | binding result [4]: binds more weakly
